Measurements reported in PubChem BioAssay AID1259259 (Sanger Institute, 2017)
Shown is an unselected part of 794 reagents. Over the whole deposit, 9 (1.1%) were called active. 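Calls rest on knock-down alone, not drug synergy; viability values seem capped at 1.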 Further read-outs or replicates are left out here. The record does not give: the amount of reagent, the time to read-out.

Screen: 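Kinase silencing that lowers colorectal cancer cell viability alone or with drugs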 (primary screen)
Cells: SW1463 human colorectal cancer cells
Reagents: siRNA pool against human genes
Treatment: DMSO vehicle, or one anchor drug: BYL719 at 1 µM, cetuximab at 5 µg/ml, or trametinib at 10 nM
Detection: 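Viability as fraction of control pool 2 (non-targeting), replicate mean; knock-down robust z-score without any drug; synergy score averaged for each anchor drug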
Scale: robust z-score, knock-down alone: higher = more viable cells after knock-down
Call rule: 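Knock-down called essential when its robust z-score without drug falls below -3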
Meaning of the calls: active = essential: viability loss from knock-down alone; inactive = no change from knock-down alone

What is on record for TGFBR3 (transforming growth factor beta receptor 3)?
robust z-score, knock-down alone: 0.912; outcome: inactive

Which result is listed for PTK2B (protein tyrosine kinase 2 beta)?
robust z-score, knock-down alone: -0.0569; outcome: inactive

With PLK3 (polo like kinase 3), how do the results read?
robust z-score, knock-down alone: 1.13; outcome: inactive

With TESK1 (testis associated actin remodelling kinase 1), what was measured?
robust z-score, knock-down alone: 1.13; outcome: inactive

What did the screen give for KCNH8 (potassium voltage-gated channel subfamily H member 8)?
robust z-score, knock-down alone: 1.09; outcome: inactive

For PRPS1 (phosphoribosyl pyrophosphate synthetase 1), what was measured?
robust z-score, knock-down alone: -0.0773; outcome: inactive

What is on record for CKS1B (CDC28 protein kinase regulatory subunit 1B)?
robust z-score, knock-down alone: -0.102; outcome: inactive

How did the screen score CDK2 (cyclin dependent kinase 2)?
robust z-score, knock-down alone: 0.605; outcome: inactive

How did the screen score PRKCI (protein kinase C iota)?
robust z-score, knock-down alone: -0.366; outcome: inactive

What is on record for NEK11 (NIMA related kinase 11)?
robust z-score, knock-down alone: -0.829; outcome: inactive

With PHKB (phosphorylase kinase regulatory subunit beta), what does the deposit list?
robust z-score, knock-down alone: 1.13; outcome: inactive

What is on record for RBKS (ribokinase)?
robust z-score, knock-down alone: 0.645; outcome: inactive

What is on record for STK24 (serine/threonine kinase 24)?
robust z-score, knock-down alone: -0.805; outcome: inactive

What is on record for TP53BP1 (tumor protein p53 binding protein 1)?
robust z-score, knock-down alone: 1.13; outcome: inactive

With SPHK2 (sphingosine kinase 2), how do the results read?
robust z-score, knock-down alone: 0.412; outcome: inactive

What did the screen give for GSK3A (glycogen synthase kinase 3 alpha)?
robust z-score, knock-down alone: -0.594; outcome: inactive

What did the screen give for PRKDC (protein kinase, DNA-activated, catalytic subunit)?
robust z-score, knock-down alone: -0.895; outcome: inactive

Which result is listed for WEE1 (WEE1 G2 checkpoint kinase)?
robust z-score, knock-down alone: -2.43; outcome: inactive

For EPHB3 (EPH receptor B3), how do the results read?
robust z-score, knock-down alone: -0.978; outcome: inactive

For DLG2 (discs large MAGUK scaffold protein 2), what does the deposit list?
robust z-score, knock-down alone: 1.13; outcome: inactive

With PPP2R1A (protein phosphatase 2 scaffold subunit Aalpha), how do the results read?
robust z-score, knock-down alone: 1.13; outcome: inactive

Which result is listed for PAK6 (p21 (RAC1) activated kinase 6)?
robust z-score, knock-down alone: 1.13; outcome: inactive

With KDR (kinase insert domain receptor), how do the results read?
robust z-score, knock-down alone: 0.0422; outcome: inactive

For DGKQ (diacylglycerol kinase theta), how do the results read?
robust z-score, knock-down alone: -0.409; outcome: inactive

What is on record for NUCKS1?
robust z-score, knock-down alone: -0.154; outcome: inactive

What is on record for DGKD (diacylglycerol kinase delta)?
robust z-score, knock-down alone: -0.621; outcome: inactive

What is on record for BTK (Bruton tyrosine kinase)?
robust z-score, knock-down alone: -0.251; outcome: inactive

With ROR2 (ROR family WNT receptor 2), what was measured?
robust z-score, knock-down alone: -0.707; outcome: inactive

For GUK1 (guanylate kinase 1), how do the results read?
robust z-score, knock-down alone: -0.368; outcome: inactive

What is on record for PRPS2 (phosphoribosyl pyrophosphate synthetase 2)?
robust z-score, knock-down alone: -0.405; outcome: inactive

Which result is listed for PRKG2 (protein kinase cGMP-dependent 2)?
robust z-score, knock-down alone: -0.24; outcome: inactive

With MAP4K2 (mitogen-activated protein kinase kinase kinase kinase 2), what was measured?
robust z-score, knock-down alone: 1.13; outcome: inactive

What is on record for EPHA8 (EPH receptor A8)?
robust z-score, knock-down alone: 0.828; outcome: inactive

For PIP4K2B (phosphatidylinositol-5-phosphate 4-kinase type 2 beta), what does the deposit list?
robust z-score, knock-down alone: 0.317; outcome: inactive

How did the screen score MED24 (mediator complex subunit 24)?
robust z-score, knock-down alone: 0.733; outcome: inactive

For PDPK1 (3-phosphoinositide dependent protein kinase 1), what does the deposit list?
robust z-score, knock-down alone: -0.952; outcome: inactive

3 successive reagents from above, quoted:
KDR (kinase insert domain receptor) → robust z-score, knock-down alone: 0.0422; outcome: inactive
DGKQ (diacylglycerol kinase theta) → robust z-score, knock-down alone: -0.409; outcome: inactive
NUCKS1 → robust z-score, knock-down alone: -0.154; outcome: inactive
